The target in test [1] is T1, Myc-tagged LATS1 (large tumor suppressor kinase 1), wild type (human) (UniProt O95835).
T1 sequence: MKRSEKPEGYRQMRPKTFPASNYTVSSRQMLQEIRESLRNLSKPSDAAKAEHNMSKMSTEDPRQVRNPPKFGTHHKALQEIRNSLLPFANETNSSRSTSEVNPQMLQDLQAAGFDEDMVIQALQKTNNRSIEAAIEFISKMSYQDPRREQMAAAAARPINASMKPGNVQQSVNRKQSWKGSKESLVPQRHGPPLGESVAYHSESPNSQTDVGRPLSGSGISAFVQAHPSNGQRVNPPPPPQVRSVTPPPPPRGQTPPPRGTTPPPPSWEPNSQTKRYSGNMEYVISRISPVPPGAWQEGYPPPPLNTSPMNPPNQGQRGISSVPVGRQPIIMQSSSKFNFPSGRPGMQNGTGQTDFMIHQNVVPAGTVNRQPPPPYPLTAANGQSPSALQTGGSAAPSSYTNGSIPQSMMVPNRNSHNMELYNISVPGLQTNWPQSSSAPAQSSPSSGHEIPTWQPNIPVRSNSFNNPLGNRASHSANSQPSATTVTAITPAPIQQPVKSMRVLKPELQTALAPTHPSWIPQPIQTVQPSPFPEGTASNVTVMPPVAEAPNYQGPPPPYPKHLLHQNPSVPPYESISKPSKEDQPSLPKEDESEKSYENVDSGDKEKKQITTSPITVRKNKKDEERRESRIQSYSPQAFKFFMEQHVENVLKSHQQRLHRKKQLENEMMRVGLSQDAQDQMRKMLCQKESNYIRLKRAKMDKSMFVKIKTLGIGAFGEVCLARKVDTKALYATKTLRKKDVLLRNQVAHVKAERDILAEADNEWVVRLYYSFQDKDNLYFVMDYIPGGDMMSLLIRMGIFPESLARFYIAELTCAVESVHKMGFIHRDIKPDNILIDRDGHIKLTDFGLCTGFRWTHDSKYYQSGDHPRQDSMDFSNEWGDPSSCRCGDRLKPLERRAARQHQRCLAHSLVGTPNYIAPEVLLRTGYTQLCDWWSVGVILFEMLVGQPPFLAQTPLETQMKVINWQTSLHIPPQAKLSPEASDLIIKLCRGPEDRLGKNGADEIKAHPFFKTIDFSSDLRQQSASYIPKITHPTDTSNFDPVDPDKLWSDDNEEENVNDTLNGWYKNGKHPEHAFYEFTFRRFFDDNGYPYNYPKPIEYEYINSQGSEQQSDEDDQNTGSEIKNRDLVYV
The experiment in a line: co-IP; HEK293 cells co-transfected with Flag-PMEPA1a and Myc-LATS1 constructs; IP with anti-Flag or anti-Myc; RIPA lysate, antibody overnight at 4 °C, Protein A/G magnetic beads; western blot.

The target of test [2] is T2, LATS1, endogenous (human (endogenous in U87MG, U251, GBM#P3, HEK293)) (UniProt O95835).
T2 sequence: T1 sequence
As to the kind of experiment: co-IP; endogenous proteins in GBM#P3 cells; western blot.

Test [3] addresses T2, LATS1, endogenous (human (endogenous in U87MG, U251, GBM#P3, HEK293)). As to the kind of experiment: co-IP; endogenous proteins in parental U251 and U87MG cells; IP with PMEPA1 or LATS1 antibody; RIPA lysate; western blot. For orientation: Immunoblotting shows a protein as a band on a membrane.

Results are given in words; binding and its absence hold for the method and conditions named. In cells and extracts the contact can be indirect. Some results given as binding are weak or reduced against the parent protein; the word gives no strength. For part of these data: Where a sequence is shown, tags or fusion partners need not be part of it.

B1: Flag-tagged PMEPA1a (prostate transmembrane protein, androgen induced 1, isoform a), wild type (protein, UniProt Q969W9 1-287)
chain: MHRLMGVNSTAAAAAGQPNVSCTCNCKRSLFQSMEITELEFVQIIIIVVVMMVMVVVITCLLSHYKLSARSFISRHSQGRRREDALSSEGCLWPSESTVSGNGIPEPQVYAPPRPTDRLAVPPFAQRERFHRFQPTYPYLQHEIDLPPTISLSDGEEPPPYQGPCTLQLRDPEQQLELNRESVRAPPNRTIFDSDLMDSARLGGPCPPSSNSGISATCYGSGGRMEGPPPTYSEVIGHYPGSSFQHQQSSGPPSLLEGTRLHHTHIAPLESAAIWSKEKDKQKGHPL
Take B1: in test [1], the binding entry is listed as “binds”.

B2: PMEPA1, endogenous in glioma cells (protein, UniProt Q969W9 1-287)
chain: B1 chain
As for B2, the binding result in test [2] and in test [3] was “binds” in each case.

For the origin of these results see PMC6989403.
